Among the data in PubChem BioAssay AID624405 (Broad Institute, 2012) are rescue activity (ATP increase) values, retold here.

Among all 1,900 compounds or so, about 250 (13%) were called active. Another 4% or so got no clear call; they are omitted.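 The calls were made as follows: active = fitted curve reaches 40% rescue activity at or below the top valid dose, in every test run; inconclusive = test runs disagree, some active and some inactive; inactive = every run misses the threshold or moves the wrong way.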 The entries are a selection whose mix differs from that of the whole data set. Results with a measured potency or affinity are listed apart.

A short description of this test: rescue of simvastatin-induced ATP loss – cell-based, C2C12 myotubes, ATP luminescence, cherry pick, dose response (AID 624405).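 Also: myotubes are challenged with simvastatin at 10 µM to lower ATP.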 The following applies: 48 h, scaled: DMSO wells 0, geranylgeraniol wells 100; at 19.5 µM (top of the series) unless noted.
With `C[C@@H]1CN([C@H](C)CO)C(=O)Cc2cc(NS(=O)(=O)c3cn(C)cn3)ccc2O[C@H]1CN(C)Cc1ccc(-c2ccccc2)cc1`, the rescue activity (ATP increase) was inactive: 27.2%.

As for `C[C@H](CO)N1C[C@H](C)[C@H](CN(C)Cc2ccc3c(c2)OCO3)Oc2ccc(NC(=O)NC3CCCCC3)cc2C1=O`, the rescue activity (ATP increase) was inactive: 16.7%.

Turning to `COc1ccc(NC(=O)Nc2ccc3c(c2)C(=O)N([C@@H](C)CO)C[C@@H](C)[C@@H](CN(C)Cc2ccc(C(F)(F)F)cc2)OCCCC[C@H](C)O3)cc1`, the rescue activity (ATP increase) is inactive: 12.6%.

Consider `Cc1cccc2cc(COC(=O)c3cccnc3)c(=O)[nH]c12`, for which the rescue activity (ATP increase) is inactive: -0.349%.

Consider `Cc1ccc(NS(=O)(=O)c2ccc(C)c(C(=O)N3CCN(C)CC3)c2)cc1`, for which the rescue activity (ATP increase) was inactive: 8.73%.

Turning to `COC(=O)COc1ccc(S(=O)(=O)Nc2ccccc2SC)cc1`, the rescue activity (ATP increase) was inactive: 6.82%.

Turning to `C[C@H](CO)N1C[C@H](C)[C@H](CN(C)C(=O)Nc2cccc3ccccc23)OCCCC[C@H](C)Oc2ccc(NC(=O)Nc3ccc4c(c3)OCO4)cc2C1=O`, the rescue activity (ATP increase) was inactive: -9.19%.

For `Cc1noc(C)c1NC(=O)Nc1ccc2c(c1)C(=O)N([C@@H](C)CO)C[C@H](C)[C@@H](CN(C)S(=O)(=O)c1c(C)noc1C)OCCCC[C@@H](C)O2`, the rescue activity (ATP increase) is inactive: 10.1%.

With `C[C@H](CO)N1C[C@H](C)[C@H](CN(C)C(=O)Nc2ccccc2)Oc2ncc(-c3cc4ccccc4o3)cc2C1=O`, the rescue activity (ATP increase) is inactive: 5.51% [at 21 µM].

Turning to `O=C(O)CCCCCN1C(=O)/C(=C\c2ccc(-c3ccc(Cl)cc3)o2)SC1=S`, the rescue activity (ATP increase) was inactive: 7.3%.

Consider `COc1cc(C)c(Cl)cc1S(=O)(=O)NCCN1CCOCC1`, for which the rescue activity (ATP increase) is inactive: 3.52%.

Consider `Cc1ccc(C2C=C(c3ccccc3OC(F)F)Nc3ncnn32)cc1` (stereo not drawn), for which the rescue activity (ATP increase) was inactive: 19.5%.

Take `O=C(c1ccccc1)c1cccn1CC(=O)N1CCCCCC1`: the rescue activity (ATP increase) is inactive: 16.6%.

`CCn1c2ccccc2c2cc(N)ccc21`: the rescue activity (ATP increase) was inactive: 7.12%.

On to `C[C@@H]1CN([C@@H](C)CO)C(=O)c2cccc(NC(=O)c3ccncc3)c2O[C@@H]1CN(C)S(=O)(=O)c1ccc(Cl)cc1`, for which the rescue activity (ATP increase) was inactive: 24.6%.

On to `C[C@H](CO)N1C[C@H](C)[C@@H](CN(C)S(=O)(=O)c2ccc(Cl)cc2)Oc2c(NC(=O)C3CCCCC3)cccc2C1=O`, for which the rescue activity (ATP increase) was inactive: 18.1% [at 21 µM].

As for `CNC[C@H]1Oc2ccc(NC(=O)c3ccncc3)cc2C(=O)N([C@@H](C)CO)C[C@@H]1C`, the rescue activity (ATP increase) was inactive: 5.21% [at 21 µM].

As to `CN1C(=O)c2cc(NS(=O)(=O)c3ccc(Cl)cc3)ccc2OC[C@@H]2O[C@H](CC(=O)N3CCc4ccccc4C3)CC[C@H]21`, the rescue activity (ATP increase) was inactive: -18.4%.

Turning to `O=C(OCCOc1ccc(Br)cc1)c1cnccn1`, the rescue activity (ATP increase) is inactive: 9.55%.

As for `C[C@@H]1CN([C@@H](C)CO)C(=O)c2cc(NC(=O)Nc3ccc(C(F)(F)F)cc3)ccc2O[C@H]1CN(C)Cc1ccc(C(=O)Nc2ccccc2N)cc1`, the rescue activity (ATP increase) was inactive: 10.1%.

Take `CNC(=O)c1ccccc1S(=O)(=O)c1ccccc1C#N`: the rescue activity (ATP increase) is inactive: 3.83%.

`C[C@H]1CN([C@@H](C)CO)C(=O)c2cccc(NS(=O)(=O)c3ccccc3)c2O[C@H]1CN(C)Cc1ccc(Oc2ccccc2)cc1`: the rescue activity (ATP increase) was inactive: 0.64%.

With `C[C@@H]1CCCCO[C@@H](CN(C)CC2CCCCC2)[C@@H](C)CN([C@H](C)CO)C(=O)c2cc(NS(=O)(=O)c3ccc(F)cc3)ccc2O1`, the rescue activity (ATP increase) was inactive: 9.84%.

Turning to `Cc1ccc(-c2ccccc2[C@@H]2C[C@H]3CN(C)C(=O)[C@]34CCCN24)o1`, the rescue activity (ATP increase) is inactive: 35.7%.

Take `Cc1ccc(S(=O)(=O)Nc2ccc3c(c2)CC(=O)N([C@@H](C)CO)C[C@H](C)[C@H](CN(C)S(=O)(=O)c2cccs2)O3)cc1`: the rescue activity (ATP increase) was inactive: 5.6%.

Regarding `O=C(CSCc1ccc(Cl)cc1)N/N=C/c1ccccc1`, the rescue activity (ATP increase) was inactive: -13.5%.

`C[C@H]1CCCCO[C@@H](CN(C)C(=O)NC2CCCCC2)[C@@H](C)CN([C@@H](C)CO)C(=O)c2cc(NC(=O)Nc3cccc4ccccc34)ccc2O1`: the rescue activity (ATP increase) was inactive: 6.67%.

As for `NC(=O)NC(=O)CSc1nc(-c2ccccc2)c(-c2ccccc2)n1CC1CCCO1` (stereo not drawn), the rescue activity (ATP increase) was inactive: 15.9%.

Take `Cc1nnc(Sc2nc3c(c(=O)n(C)c(=O)n3C)n2Cc2ccccc2Cl)s1`: the rescue activity (ATP increase) was inactive: -13.5%.

Regarding `OC[C@@H]1[C@@H]2c3ccccc3NC[C@@H]2N1Cc1ccccc1Cl`, the rescue activity (ATP increase) is inactive: -5.82%.

Regarding `COc1ccc(S(=O)(=O)Nc2ccc3c(c2)CC(=O)N([C@H](C)CO)C[C@@H](C)[C@H](CN(C)Cc2ccc(C(F)(F)F)cc2)O3)cc1`, the rescue activity (ATP increase) is inactive: 21.9%.

Turning to `C[C@@H]1CN([C@@H](C)CO)C(=O)c2cc(NS(=O)(=O)c3ccc(F)cc3)ccc2O[C@H]1CN(C)S(=O)(=O)c1cccs1`, the rescue activity (ATP increase) was inactive: 1.89% [at 21 µM].

With `CN(c1ccc(C(=O)NCc2ccco2)cc1)S(C)(=O)=O`, the rescue activity (ATP increase) is inactive: 3.46%.

With `O=S(=O)(c1ccccc1C(F)(F)F)N1CCN(S(=O)(=O)c2ccccc2C(F)(F)F)CC1`, the rescue activity (ATP increase) was inactive: 16%.

Consider `Cc1c(Cl)cccc1NC(=O)CNC(=O)Cc1n[nH]c(=O)c2ccccc12`, for which the rescue activity (ATP increase) was inactive: 14.5%.

Turning to `C[C@@H]1CCCCO[C@H](CN(C)C(=O)NC2CCCCC2)[C@H](C)CN([C@@H](C)CO)C(=O)c2cc(NC(=O)Nc3cccc4ccccc34)ccc2O1`, the rescue activity (ATP increase) is inactive: 2.49%.

As to `C[C@@H]1CCCCO[C@@H](CN(C)C(=O)C2CCCCC2)[C@H](C)CN([C@H](C)CO)C(=O)c2cc(NS(=O)(=O)c3ccccc3)ccc2O1`, the rescue activity (ATP increase) is inactive: 8.26%.

On to `Nc1nc(-c2ccco2)nn1C(=O)CCc1ccccc1`, for which the rescue activity (ATP increase) was inactive: -0.124%.

Take `Cc1ccc(CSCC(=O)N2CCOCC2)cc1`: the rescue activity (ATP increase) was inactive: 6.53%.

For `C[C@H](CO)N1C[C@H](C)[C@H](CN(C)S(=O)(=O)c2cn(C)cn2)Oc2c(NS(C)(=O)=O)cccc2C1=O`, the rescue activity (ATP increase) was inactive: 4.58%.

In the case of `COc1ccc(NC(=O)N(C)C[C@H]2Oc3c(NS(=O)(=O)c4cccs4)cccc3C(=O)N([C@@H](C)CO)C[C@H]2C)cc1`, the rescue activity (ATP increase) was inactive: 5.39%.

Take `COc1cc(Cl)ccc1NC(=O)COc1ccccc1C(=O)N1CCN(c2ccc(O)cc2)CC1`: the rescue activity (ATP increase) is inactive: 8.49%.

Take `C[C@@H]1CCCCO[C@@H](CN(C)S(=O)(=O)c2cccs2)[C@H](C)CN([C@H](C)CO)C(=O)c2cc(NC(=O)Nc3ccc(F)cc3)ccc2O1`: the rescue activity (ATP increase) is inactive: -18.3%.
